Some of the results follow. The main result of the screen is listed elsewhere. These columns were measured beside it and carry no call. The list favours compounds with an active or inconclusive main result. Potencies come from curve fits of mixed quality, noted in brackets.
Experiment: qHTS Assay to Find Inhibitors of Chronic Active B-Cell Receptor Signaling
Details: ABC-DLBCL IkBa-CBG/CBR reporter, luminescence ratio (green luciferase fused to IkBa over red control in TMD8 lymphoma cells), 4 h
How it was run: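 TMD8 ABC-DLBCL cells carrying doxycycline-inducible green luciferase fused to IkappaBalpha plus unfused red luciferase were exposed to compounds (up to 46 uM) for 4 hrs at 37C. Activity came from the overlap-corrected green/red luminescence ratio.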

[1] = measured here: CBR red luminescence, cell number
[2] = measured here: IkBa-CBG green luminescence

SMILES	AC50 [1]	AC50 [2]
CCC(CC)C(=O)Nc1ccc(C(=O)Nc2cc(C)on2)cc1	0.891 µM [falling, partial curve]	
O/N=C/c1ccc(OCc2ccccc2)c(Br)c1	1.03 µM [rising, full curve]	
O=C(COC(=O)CC(c1ccccc1)c1ccccc1)NCc1ccc(Cl)cc1	29.1 µM [falling, single point]	
O=C(CCN1CCCCCC1)Nc1ccc(F)c(F)c1	35.5 µM [falling, single point]	
Nn1cnnc1N/N=C/c1cccc(Cl)c1Cl	35.5 µM [falling, single point]	
N#CC1(NC(=O)CN2CCN(S(=O)(=O)c3ccccc3F)CC2)CCCC1	5.62 µM [rising, single point]	
O=C(NCC1CCCO1)c1cc(S(=O)(=O)N2CCCCC2)ccc1Cl (stereo not drawn)	29.1 µM [rising, single point]	
OCC12COC(c3ccccc3)N1C(c1ccccc1)OC2 (stereo not drawn)	22.4 µM [rising, single point]	
COCCOc1ccc(C(F)(F)F)cc1Nc1nc2ccccc2o1	8.2 µM [falling, partial curve, poor fit]	
Cc1nc([N+](=O)[O-])c(Br)n1CC(=O)c1cccc([N+](=O)[O-])c1	17.8 µM [falling, partial curve, poor fit]	
COc1ccc(C(=O)NCCN2CCCC2)cc1	11.2 µM [rising, partial curve, poor fit]	
O=C(c1ccccc1)c1ccc2c(c1)OCCOCCOCCOCCO2	0.1 µM [falling, full curve, poor fit]	
CN(CC(=O)NCc1ccc2c(c1)OCO2)S(=O)(=O)c1ccc(Br)s1	2.31 µM [rising, partial curve, poor fit]	
CC(C)CNC(=O)c1ccc(C2SCC(=O)N2Cc2ccccc2)cc1 (stereo not drawn)	35.5 µM [rising, partial curve, poor fit]	
COc1ccc(N2CC(C(=O)N/N=C/c3ccc(C)cc3)CC2=O)cc1 (stereo not drawn)	35.5 µM [rising, single point]	
O=C1CCN(CCc2ccccc2)CCN1[C@H](COc1ccccc1)c1ccccc1	12.6 µM [falling, partial curve, poor fit]	
O=C(COC(=O)/C=C/c1ccc2ccccc2n1)NNC(=O)c1ccc([N+](=O)[O-])cc1	29.1 µM [falling, single point]	
Cc1ccc(NC(=O)Cn2nnc(-c3ccccc3-n3cnnn3)n2)c(C)c1	0.316 µM [rising, full curve, poor fit]	
Cc1ccc2cccc(NC3OC(=O)c4ccccc43)c2n1 (stereo not drawn)	0.13 µM [rising, full curve, poor fit]	
Cc1ccc(C(=O)N/N=C\c2cccnc2)s1	11.2 µM [falling, single point]	
COc1ccc2c(-c3ccccc3)cc3nnnn3c2c1	2.24 µM [rising, full curve, poor fit]	

SMILES	AC50 [1]	AC50 [2]
c1ccc(-c2oc3ncnc(NCCN4CCOCC4)c3c2-c2ccccc2)cc1	11.6 µM [falling, partial curve, poor fit]	
CCOC(=O)CCSc1cc(C)c2ccccc2n1	8.91 µM [rising, partial curve, poor fit]	
COc1ccc(NC(=O)C2(c3ccccc3)CCCC2)cc1	7.94 µM [rising, partial curve]	
c1ccc(-c2cc3ccccc3cn2)cc1	0.0651 µM [rising, full curve, poor fit]	
Cc1ccccc1C(=O)N1CCc2cc(-c3csc(NC(=O)CN4CCCC4)n3)ccc21	15.8 µM [falling, single point]	
C/C(=N\NC(=O)c1ccc(O)cc1)c1ccc2c(c1)Nc1ccccc1S2	1.84 µM [falling, partial curve, poor fit]	
O=C(Nc1ccc(-c2nc3ccccc3[nH]2)cc1)C1CCCO1 (stereo not drawn)	10.3 µM [falling, partial curve]	
Cc1ccc2nc(-c3ccccc3C)oc(=O)c2c1	8.91 µM [falling, partial curve, poor fit]	
O=C(CCCc1ccccc1)N1CCc2ccccc21	16.4 µM [falling, single point]	
O=C(Nc1ccccc1Cl)c1ccccc1Cc1ccccc1	18.4 µM [rising, single point]	
Cc1ccc([N+](=O)[O-])cc1-c1ccc(/C=C(\C#N)c2[nH]nc(N)c2C#N)o1	16.4 µM [rising, partial curve]	
Oc1cccc(NC(=S)Nc2ccccc2)c1	3.16 µM [rising, full curve, poor fit]	
COc1ccc(C[C@H]2CN3C(=NC[C@@H]3C(C)C)N2CCNC(=O)c2ccc(C)c(Br)c2)cc1	12.6 µM [falling, single point]	
CCOc1cc(C2NC(=O)N(C)C(C)=C2C(=O)OC)cc(Br)c1O (stereo not drawn)	0.461 µM [falling, partial curve, poor fit]	
CC(C)(O)C#Cc1ccc(C(=O)NCc2ccccc2F)cc1	1.84 µM [rising, full curve, poor fit]	
COc1cc(OC)cc(C(=O)NCC(=O)N2CC=C(c3ccccc3)CC2)c1	9.2 µM [rising, partial curve, poor fit]	9.2 µM [falling, partial curve]
Cc1c(CCOC(=O)c2ccc(N3CCOCC3)c([N+](=O)[O-])c2)sc[n+]1CC#N	12.6 µM [rising, partial curve]	22.4 µM [falling, single point]
Cn1c(=O)c2c(nc(Oc3ccccc3)n2C)n(C)c1=O		2.06 µM [rising, partial curve, poor fit]
O=C(NC1CCN(C(=S)NCCc2ccccc2)CC1)C1CC1	35.5 µM [rising, single point]	
COC(=O)c1c[nH]n2c(=O)c(Cc3ccc(F)cc3Cl)c(C)nc12	2.82 µM [falling, full curve, poor fit]	

— PubChem BioAssay AID493014 (National Center for Advancing Translational Sciences (NCATS), 2011)
